Source: PubChem BioAssay AID485298 (National Center for Advancing Translational Sciences (NCATS), 2010)
About 740 (0.23%) of roughly 320,000 compounds were called active. The shares of active, inactive and inconclusive entries below differ from those in the screen. The call rests on the fitted dose curve; in most records, active means well fitted activation curve with a large enough effect; inconclusive means small, poorly fitted or top-dose-only effect; inactive means no such curve, though single readings can be large or run the other way. Where the call is inconclusive, the potency comes from a doubtful curve fit.

Assay: qHTS Assay for Small Molecule Inhibitors of Mitochondrial Division or Activators of Mitochondrial Fusion; further: nearly all actives have a fitted effect of over 45% in size; on growth rescue (activation): % of control where 0% means no effect
Details: S. cerevisiae fusion-defective mutant growth rescue, CellTiterGlo 48 h; growth rescue (activation): at 46.1 µM (top of the series) unless noted
From the text: NIH Chemical Genomics Center [NCGC] NIH Molecular Libraries Probe Production centers Network [MLPCN] MLPCN Grant: MH081279-01 Assay Submitter (PI): Jodi M. Nunnari NCGC Assay Overview: The budding yeast S. cerevisiae is a powerful system to study mitochondrial fusion. Unlike other organisms, yeast cells without functional mitochondrial DNA (mtDNA) can be propagated and studied as long as they maintain a mitochondrial compartment and are provided with a fermentable carbon source. When mitochondrial fusion is blocked in yeast, mitochondrial tubules rapidly fragment and division continues unopposed. Under conditions where fusion is compromised in mammalian cells, nearly identical changes in mitochondrial structure have been observed. Thus, these findings indicate that steady state mitochondrial structure in cells is a characteristic and specific indicator of fusion activity. Mounting evidence has pointed to a connection between mitochondrial dynamics and apoptosis in mammalian cells. These studies indicate that in mammalian cells mitochondrial dynamics are more integrated into cellular processes than in yeast cells and have evolved not only to distribute the organelle but also to aid in the regulation of cellular homeostasis. Mitochondrial fusion proteins attenuate apoptosis by inhibiting the release of cytochrome c from mitochondria, in part by controlling cristae structures. Thus, small molecules that inhibit mitochondrial […] may promote apoptosis and potentially act as novel chemotherapeutics and stimulation of apoptosis has become an attractive target of anti-cancer therapies. To identify inhibitors of mitochondrial division, we exploit the growth phenotypes of mitochondrial fusion-defective mutants. The temperature sensitive fusion alleles, such as fzo1-1 and mgm1-5, cause mitochondrial membranes to fragment in cells under non-permissive conditions and cells lose mtDNA, and are unable to grow in the presence of non-fermentable carbon source glycerol. Inhibiting mitochondrial division rescues growth. We have developed and optimized a luminescence cell viability assay in 1536 well format for the identification of inhibitors in the yeast mitochondrial fusion-defective assay.
The yeast glycerol stocks where kindly supplied by the laboratory of Dr. Jodi Nunnari, University of California, Davis. All yeast glycerol stock solutions were stored in single use aliquots at -80C. The CellTiterGlo luminescence reagent, containing luciferase and luciferin, were purchased from Promega, and the reagents were stored according to manufacturer's instructions. The Buffer components for the YPEG yeast growth medium were purchased from Sigma-Aldrich (St. Louis, MO). YPEG growth medium: 1% (w/v) yeast extract, 2% (w/v) Bacto-peptone, 3% Ethanol, 3% glycerol, 0.4mM Tryptophan, 0.36mM Adenine. qHTS Assay Protocol: 1.#Dispense 2.5 ul yeast growth medium per 1536 well plate. 2.#Transfer 23 nl per well of compound to plate. 3.#Dispense 2.5 ul yeast solution at appropriate seeding density per well. 4.#Incubate for 48 hours at 37C. 5.#Dispense 5 ul of CellTiterGlow solution per well. 6.#Incubate at ambient for 10 minutes. 7.#Read using bio-luminescence protocol on Viewlux.
Potency means the concentration at half of the fitted maximal effect.

Structure (SMILES)	Potency	growth rescue (activation)
CCOC(=O)CSc1nnc(NC(=O)c2ccco2)s1	inconclusive: 3.16 µM [activator, partial curve]	–
CCOc1ccc(C2CC(c3ccc(CC)cc3)Nc3nc(N)nn32)cc1 (centres undefined)	inconclusive: 3.98 µM [activator, single point]	–
O=c1oc2ccc([N+](=O)[O-])cc2c(N2CCOCC2)c1[N+](=O)[O-]	inconclusive: 35.5 µM [activator, single point]	–
O=C(O)c1cccc(Oc2ccc([N+](=O)[O-])cc2)c1	–	inactive: 0.292%
COc1ccc(C(=O)c2cc([N+](=O)[O-])ccc2N2CCCC2)cc1	inconclusive: 14.1 µM [activator, partial curve]	–
Oc1ccccc1CNCCCNCc1ccccc1O	–	inactive: -3.49%
C/C(=N\NC(=O)c1cc2ccccc2cc1O)c1ccccn1	–	inactive: -25.4%
CC1CCCCN1C(=O)Cn1cc(/C=C2/C(=O)Nc3ccccc32)c2ccccc21 (centres undefined)	inconclusive: 12.6 µM [activator, partial curve]	–
Cc1cccc(C)c1N1C(=O)CN(Cc2ccccc2)C1=S	inconclusive: 17.8 µM [activator, partial curve, poor fit]	–
CCC(C(=O)NC(C)(C)C)N(C(=O)Cn1nnc(-c2ccccc2F)n1)c1cnc2ccccc2c1 (centres undefined)	inconclusive: 35.5 µM [activator, single point]	–
Cc1cccc(N=C2NN=C(c3c[nH]c4ccccc34)CS2)c1	inconclusive: 35.5 µM [activator, single point]	–
O=[N+]([O-])C(/C=C(\Cl)[N+](=O)[O-])=C(N1CCCCC1)N1CCCCC1	inconclusive: 22.4 µM [activator, single point]	–
COc1ccccc1Nc1nc2ccccc2n2cnnc12	–	inactive: 7.61%
N/C(=N\OS(=O)(=O)c1cccc([N+](=O)[O-])c1)c1ccncc1	inconclusive: 20 µM [activator, single point]	–
COc1ccc(C(=S)NC2CCCCC2)cc1	–	inactive: -1.81%
COc1cccc(NC(=O)N2CCN(c3nnnn3-c3ccccc3)CC2)c1	inconclusive: 11.2 µM [activator, partial curve]	–
Cc1cccc(-c2cc3nc(-c4ccccc4)cc(N4CCC5(CC4)OCCO5)n3n2)c1	inconclusive: 10 µM [activator, partial curve]	–
CC(C)c1ccc(NC(=O)CCc2ccccc2)cc1	–	inactive: 2.43%
COc1ccc(/C=C/C(=O)OCC(=O)NCCC2=CCCCC2)cc1OC	inconclusive: 14.1 µM [activator, partial curve]	–
Cc1ccc(S(=O)(=O)N2CCC(=O)N(C(COCc3cccc(Cl)c3)C(C)C)CC2)cc1 (centres undefined)	inconclusive: 35.5 µM [activator, single point]	–
COc1ccc(OCc2cc(C(=O)NCCc3ccccc3)no2)c(Cl)c1	–	inactive: -11.4%
CCn1c(-c2cc(-c3ccc(C)cc3)nc3ccccc23)n[nH]c1=S	inconclusive: 31.6 µM [activator, single point]	–
CCCn1c(N2CCC(Cc3ccccc3)CC2)nc2c1c(=O)[nH]c(=O)n2C	inconclusive: 12.6 µM [activator, partial curve]	–

Looked up by compound from the entries so far:
Structure (SMILES)	Potency	growth rescue (activation)
O=c1oc2ccc([N+](=O)[O-])cc2c(N2CCOCC2)c1[N+](=O)[O-]	inconclusive: 35.5 µM [activator, single point]	–
CC(C)c1ccc(NC(=O)CCc2ccccc2)cc1	–	inactive: 2.43%

(next part)

Structure (SMILES)	Potency	growth rescue (activation)
Cc1onc(-c2ccccc2Cl)c1C(=O)Nc1nnc(-c2ccc(Br)cc2)s1	inconclusive: 17.8 µM [activator, partial curve]	–
CC1CCC(NC(=O)CCCn2sc3ccccc3c2=O)CC1 (centres undefined)	–	inactive: 12.7%
c1ccc(N2CCN(c3ncnc4sc5c(c34)CCC5)CC2)cc1	inconclusive: 12.6 µM [activator, partial curve]	–
O=C(CCOc1cccc(Br)c1)Nc1ccc(F)c(S(=O)(=O)N2CCOCC2)c1	–	inactive: 4.41%
O=C(Nc1ccc(N2CCOCC2)c(Cl)c1)c1cc2ccccc2o1	inconclusive: 14.1 µM [activator, single point]	–
COc1ccccc1-c1nnc(SC2CCc3ccccc3NC2=O)s1 (centres undefined)	inconclusive: 31.6 µM [activator, single point]	–
CCOC(=O)c1c(C)[nH]c(C)c1C(=O)CSc1nc2ccccc2c(=O)n1-c1ccccc1C	–	inactive: 8.66%
Cc1nn(Cc2cccc(C(=O)NC34CC5CC(CC(C5)C3)C4)c2)c(C)c1Br	inconclusive: 12.6 µM [activator, partial curve]	–
COc1ccccc1-c1cc(C(=O)NCc2ccc(F)cc2)no1	inconclusive: 22.4 µM [activator, single point]	–
CN/C(=C\[N+](=O)[O-])NCCSCc1ccc(CN(C)C)o1	inconclusive: 14.6 µM [activator, single point]	–
O=S(=O)(Nc1ccccc1C(F)(F)F)c1ccc(-c2ccccn2)s1	inconclusive: 3.16 µM [activator, full curve, poor fit]	–
CCS(=O)(=O)N1Cc2ccccc2CC1C(=O)Nc1cccc(OC)c1 (centres undefined)	inconclusive: 0.355 µM [activator, full curve, poor fit]	–
Cc1cccc(N2CCN(C(=O)CC(NC(=O)c3ccccc3Cl)c3ccccc3)CC2)c1C (centres undefined)	inconclusive: 35.5 µM [activator, single point]	–
Cc1c(Cc2ccc3c(c2)OCO3)sc(NC(=O)C2CC2)c1C(N)=O	inconclusive: 11.2 µM [activator, partial curve]	–
Cc1cccc(N2CCN(S(=O)(=O)c3ccc4c(c3)NC(=O)C(C)S4)CC2)c1C (centres undefined)	active: 11.2 µM	–
COc1ccc2nc(Cl)c(C3CC(c4ccco4)=NN3C(=O)CCCC(=O)O)cc2c1 (centres undefined)	–	inactive: 3.91%
CCCCN(C(=O)c1ccc(COc2ccccc2)o1)c1c(N)n(CC(C)C)c(=O)[nH]c1=O	–	inactive: 0.337%
O=C(CSc1ccc(Cl)cc1)Nc1ccccc1N1CCN(C(=O)c2ccc(Cl)cc2)CC1	inconclusive: 12.6 µM [activator, partial curve]	–
C=CCNC(=O)NC(=O)COC(=O)/C(C#N)=C/c1ccc(OC)cc1	inconclusive: 14.1 µM [activator, single point]	–
Cc1cc(N2CCN(C(=O)c3ccco3)CC2)n2nc(-c3cccc(Cl)c3)cc2n1	inconclusive: 11.2 µM [activator, partial curve]	–
Cc1cc(Cl)c2oc(C(=O)N3CCN(C(=O)c4ccco4)CC3)c(C)c2c1	inconclusive: 35.5 µM [activator, single point]	–
Cc1ccc(-n2nc3c(=O)n(C(C)C(=O)NCc4ccccc4Cl)nc(C)c3c2C)cc1 (centres undefined)	–	inactive: -65.2%
Cc1ccc(CNC(=O)c2cc(C3CC3)nc3c2cnn3C(C)C)cc1	inconclusive: 5.62 µM [activator, single point]	–

Structure (SMILES)	Potency	growth rescue (activation)
O=C(Nc1ccc(CN2CCOCC2)cc1)c1ccc(-c2ccc(Br)cc2)o1	inconclusive: 28.2 µM [activator, single point]	–
COc1ccc(OCC(=O)Nc2cc(-c3nn(C)c(=O)c4ccccc34)ccc2OC)cc1	–	inactive: -0.118%
O=C(Nc1ccc(Cl)c(-c2nc3ccccc3[nH]2)c1)c1ccc2c(c1)OCO2	inconclusive: 22.4 µM [activator, single point]	–
Cc1ccc(N=C2NC(=O)/C(=C\c3ccsc3)S2)c(C)c1	inconclusive: 11.2 µM [activator, partial curve]	–
CCOc1ccc(NC(=O)CN2C(=O)C3CCCN3C2=O)cc1 (centres undefined)	–	inactive: -4.8%
O=C(Nc1cccc(-c2cccc(F)c2)c1)C1CCN(C2CCOCC2)CC1	inconclusive: 35.5 µM [activator, single point]	–
CCOC(=O)c1cc(C#N)c(SCC(=O)O)[nH]c1=O	–	inactive: 9.74%
C=CCn1cccc(C(=O)Nc2ccc(SC)cc2)c1=O	inconclusive: 20 µM [activator, partial curve]	–
O=C(c1cc(COc2cccc3cnccc23)on1)N1CCCC(CCCO)C1 (centres undefined)	–	inactive: -0.694%
O=C(O)/C=C/C(=O)Nc1ccccc1-c1ccccc1NC(=O)/C=C/C(=O)O	–	inactive: -7.16%
Cc1ccc(OCCn2cc(C#N)c3ccccc32)cc1	inconclusive: 20 µM [activator, single point]	–
O=C(Nc1ccccc1C(=O)NCc1ccccc1)c1ccccc1Br	inconclusive: 12.6 µM [activator, partial curve]	–
C=CCC1C=C(C)CC(CC=C)N1 (centres undefined)	inconclusive: 15.8 µM [activator, single point]	–
CCOC(=O)/C(C#N)=C1\CCCN1CC(N)=S	–	inactive: -19.2%
N#Cc1nc(COc2ccc(Br)cc2)oc1N1CCCC1	inconclusive: 20 µM [activator, partial curve]	–
Cc1cccc(NC(=O)c2cc3n(n2)C(C(F)(F)F)CC(c2ccc4c(c2)OCO4)N3)c1 (centres undefined)	inconclusive: 15.8 µM [activator, single point]	–
CCC(C)(C)C1CCc2[nH]nc(C(=O)NCc3ccc(OC)cc3)c2C1 (centres undefined)	inconclusive: 5.01 µM [activator, partial curve]	–
O=C(Nc1c(C(=O)O)[nH]c2ccccc12)NC1CCCCC1	–	inactive: 13.5%
CCC1(c2ccc(F)cc2)NC(=O)N(CC(=O)N2CCN(S(=O)(=O)c3ccc(C)cc3)CC2)C1=O (centres undefined)	–	inactive: -11%
COc1ccccc1NC(=O)COC(=O)c1cc([N+](=O)[O-])ccc1N1CCCC1	inconclusive: 35.5 µM [activator, single point]	–
COc1ccc(Br)cc1C(=O)Nc1cccc(NC(=O)c2ccco2)c1	inconclusive: 14.1 µM [activator, partial curve]	–
O=C(CCS(=O)(=O)c1ccc(Br)cc1)NCc1ccco1	inconclusive: 2.51 µM [activator, full curve]	–
Cc1cc(C)c2nc(N(CCCN(C)C)C(=O)c3ccc4c(c3)OCCO4)sc2c1	–	inactive: -11.4%

A section from the list above:
Structure (SMILES)	Potency	growth rescue (activation)
CCC(C)(C)C1CCc2[nH]nc(C(=O)NCc3ccc(OC)cc3)c2C1 (centres undefined)	inconclusive: 5.01 µM [activator, partial curve]	–
O=C(Nc1c(C(=O)O)[nH]c2ccccc12)NC1CCCCC1	–	inactive: 13.5%
